Most of the hits are listed elsewhere, so they are rarer here than in the full data. Calls of active or inactive are those of the source. Calls come from the whole dose curve; as a rule, active = well fitted inhibition curve with a large enough effect; inconclusive = small, poorly fitted or top-dose-only effect; inactive = no such curve, though single readings can be large or run the other way.
% is set by controls: 0 for no effect and ±100 for the full control effect.

Chains of the proteins cited; added tags and fusions are not shown.
UniProt O89049, whole entry, looked up: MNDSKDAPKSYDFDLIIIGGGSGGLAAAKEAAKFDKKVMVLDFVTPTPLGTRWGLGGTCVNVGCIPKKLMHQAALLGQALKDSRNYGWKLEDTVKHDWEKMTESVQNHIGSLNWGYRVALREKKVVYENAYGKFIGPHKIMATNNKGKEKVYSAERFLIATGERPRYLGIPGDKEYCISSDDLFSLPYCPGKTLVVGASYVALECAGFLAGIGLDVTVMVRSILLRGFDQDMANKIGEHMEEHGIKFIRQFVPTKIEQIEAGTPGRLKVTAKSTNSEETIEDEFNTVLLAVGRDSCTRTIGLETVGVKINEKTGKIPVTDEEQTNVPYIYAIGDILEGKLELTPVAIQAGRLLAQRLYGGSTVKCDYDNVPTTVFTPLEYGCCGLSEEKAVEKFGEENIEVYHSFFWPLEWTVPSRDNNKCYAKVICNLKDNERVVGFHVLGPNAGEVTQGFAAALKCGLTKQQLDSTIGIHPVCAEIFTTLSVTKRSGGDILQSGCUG

The assay addresses Thioredoxin reductase 1, cytoplasmic (Rattus norvegicus) (UniProt O89049). Put plainly: qHTS Assay for Substrates of Mammalian Selenoprotein Thioredoxin Reductase 1 (TrxR1): qHTS. Note: nearly all actives have a fitted effect of over 50% in size. Conditions: purified TrxR1 substrate turnover, NADPH consumption readout; at 114 µM (top of the series). An excerpt: The selenoprotein thioredoxin reductase (TrxR; EC 1.8.1.9) is a FAD containing homodimeric pyridine nucleotide-disulfide oxidoreductase with many cellular roles. Together with NADPH and its prime substrate thioredoxin (Trx), the enzyme forms the core of the Trx system. The mammalian Trx system exerts a wide spectrum of functions including redox regulation, antioxidant defense, regulation of transcription factors as well as support of cell growth and replication. Many of these functions involve the reduction of Trx, which may subsequently reduce a number of different substrates including ribonucleotide reductase, peroxiredoxins or NFkB. […]
This BioAssay is a validation of an NADPH fluorescence-based, dual-purpose qHTS rTrxR1 assay designed to find potential inhibitors and substrates of rTrxR1. […]
Assay protocol: 2 uL of reagents (buffer in column 4 as negative control and 90 nM rTrxR1 in columns 1-3 and 5-48) were dispensed into Greiner black solid-bottom 1,536-well assay plates, followed by 1 uL of NADPH (400 uM final concentration) to each well. […] The plate was immediately transferred to a ViewLux high-throughput CCD imager (PerkinElmer), wherein kinetic measurements of NADPH fluorescence (Ex 340 nm, Em 450 nm) were acquired (8 minute kinetic read, see Table 1). […]
A general note: In qHTS, concentration-response curves come from the screen itself.
For `CN1[C@@H]2CC[C@H]1CC(OC(=O)C(O)c1ccccc1)C2` (some centres not stated), the activity change, negative = substrate turnover is inactive: 4.32%.

Turning to `O=c1ccc2ccc(OCc3ccccc3)cc2o1`, the activity change, negative = substrate turnover is inactive: 42.2%.
